For experiment [1], the target named is His-tagged HIV-1 integrase Y194A (HIV-1). The experiment can be described thus: AlphaScreen or HTRF; HTRF; His-IN 80 nM, GST-LEDGF/p75 or GST-TNPO3 5 nM, anti-GST-Europium Cryptate and anti-His-XL665; 25 mM Hepes pH 7.3, 150 mM NaCl, 2 mM MgCl2, 0.1% BSA, 1 mM DTT; read 2 h after incubation; signal as percent of IN WT ΔF; both purified. Background: Bead proximity is the source of the signal in Alpha formats.

For experiment [2], the target named is His6-tagged HIV-1 integrase K188Q (HIV-1). The description is as above.

Results are given in words; binding and its absence hold for the method and conditions named. Binding can be weak; no strength is given. Tags and fused reporters may be left off the sequences shown.

This passage reports binding results from PMC3286403.

B1: GST-TNPO3 full length (protein, UniProt Q9Y5L0 1-923)
chain: MEGAKPTLQLVYQAVQALYHDPDPSGKERASFWLGELQRSVHAWEISDQLLQIRQDVESCYFAAQTMKMKIQTSFYELPTDSHASLRDSLLTHIQNLKDLSPVIVTQLALAIADLALQMPSWKGCVQTLVEKYSNDVTSLPFLLEILTVLPEEVHSRSLRIGANRRTEIIEDLAFYSSTVVSLLMTCVEKAGTDEKMLMKVFRCLGSWFNLGVLDSNFMANNKLLALLFEVLQQDKTSSNLHEAASDCVCSALYAIENVETNLPLAMQLFQGVLTLETAYHMAVAREDLDKVLNYCRIFTELCETFLEKIVCTPGQGLGDLRTLELLLICAGHPQYEVVEISFNFWYRLGEHLYKTNDEVIHGIFKAYIQRLLHALARHCQLEPDHEGVPEETDDFGEFRMRVSDLVKDLIFLIGSMECFAQLYSTLKEGNPPWEVTEAVLFIMAAIAKSVDPENNPTLVEVLEGVVRLPETVHTAVRYTSIELVGEMSEVVDRNPQFLDPVLGYLMKGLCEKPLASAAAKAIHNICSVCRDHMAQHFNGLLEIARSLDSFLLSPEAAVGLLKGTALVLARLPLDKITECLSELCSVQVMALKKLLSQEPSNGISSDPTVFLDRLAVIFRHTNPIVENGQTHPCQKVIQEIWPVLSETLNKHRADNRIVERCCRCLRFAVRCVGKGSAALLQPLVTQMVNVYHVHQHSCFLYLGSILVDEYGMEEGCRQGLLDMLQALCIPTFQLLEQQNGLQNHPDTVDDLFRLATRFIQRSPVTLLRSQVVIPILQWAIASTTLDHRDANCSVMRFLRDLIHTGVANDHEEDFELRKELIGQVMNQLGQQLVSQLLHTCCFCLPPYTLPDVAEVLWEIMQVDRPTFCRWLENSLKGLPKETTVGAVTVTHKQLTDFHKQVTSAEECKQVCWALRDFTRLFR
In the case of B1, the binding result in experiment [1] and in experiment [2] was “binds” throughout.
